From EP0450480B1 (The Administrators of The Tulane Educational Fund, priority 1990, dated 1991)

Test: general procedure: Boc solid-phase peptide synthesis; benzhydrylamine HCl resin, about 0.55 meq NH2/g (Advanced ChemTech); diisopropylcarbodiimide/HOBt
Conditions: whole synthesis, analytical HPLC, scale of the general procedure 0.5 g resin (about 0.27 mmol)
For “PEPTIDE1{[Mel].[dF].C.Y.[dW].K.V.C.W.[am]}$PEPTIDE1,PEPTIDE1,3:R3-8:R3$$$V2.0”, the “final HPLC purity” value was over 92%. For “PEPTIDE1{[Mel].F.C.F.[dW].K.T.C.T.[am]}$PEPTIDE1,PEPTIDE1,3:R3-8:R3$$$V2.0”, the “final HPLC purity” value was over 92%. In the case of “PEPTIDE1{[Mel].C.Y.[dW].K.V.C.T.[am]}$PEPTIDE1,PEPTIDE1,2:R3-7:R3$$$V2.0”, the “final HPLC purity” value is reported as over 95%. With “PEPTIDE1{[Mel].[dF].C.Y.[dW].K.V.C.T.[am]}$PEPTIDE1,PEPTIDE1,3:R3-8:R3$$$V2.0” the “final HPLC purity” value was over 92%. With “PEPTIDE1{[Mel].[dF].C.F.[dW].K.T.C.T.[am]}$PEPTIDE1,PEPTIDE1,3:R3-8:R3$$$V2.0” the “final HPLC purity” value was over 92%.

HELM strings list residues between dots; [ac] is acetyl, [am] amide, other brackets name non-standard units.
